{"source": "patent US20210085703A1", "about": "“Compositions and Methods for Preventing or Treating Nephrolithiasis” (SP Nutraceuticals, Inc., priority 2017, published 2021)", "experiment": "Crystallization of oxalate crystals in the presence and absence of arbutin (confocal birefringence, AFM)", "assay_type": "physicochemical", "settings": "crystals formed in the presence of 1 mM arbutin", "data": [{"smiles": "OCC1OC(Oc2ccc(O)cc2)C(O)C(O)C1O", "note": "[arbutin, hydroquinone β-D-glucopyranoside]", "values": [{"measurement": "crystal surface by confocal birefringence microscopy", "result": "crystal surface aberrations"}, {"measurement": "crystal size by AFM volumetric analysis", "setting": "versus non-treated crystals", "result": "significantly smaller than non-treated crystals"}, {"measurement": "roughness index of crystal surface by AFM", "setting": "versus untreated crystal", "result": "higher than in the untreated crystal"}]}]}
